From article doi:10.64898/2025.12.08.692925
Results are given in words; binding and its absence hold for the method and conditions named. In cells and extracts the contact can be indirect. These calls come from enrichment with a bait or labelling near it, and not all partners need be listed. Where a sequence is shown, tags or fusion partners need not be part of it.

Target: T1, Tim23 fused to TurboID-V5 (S. cerevisiae) (UniProt P32897)
T1 sequence: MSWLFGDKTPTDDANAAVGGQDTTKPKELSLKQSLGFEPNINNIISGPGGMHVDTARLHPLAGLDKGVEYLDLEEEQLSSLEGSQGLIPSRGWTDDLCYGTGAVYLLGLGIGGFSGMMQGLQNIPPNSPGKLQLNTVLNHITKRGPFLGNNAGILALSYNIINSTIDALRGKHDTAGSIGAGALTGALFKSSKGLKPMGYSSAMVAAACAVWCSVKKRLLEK
Assay: proximity labelling

B1: Sfc1, endogenous (protein, UniProt P33303 1-322)
chain: MSQKKKASHPAINLMAGGTAGLFEALCCHPLDTIKVRMQIYRRVAGIEHVKPPGFIKTGRTIYQKEGFLALYKGLGAVVIGIIPKMAIRFSSYEFYRTLLVNKESGIVSTGNTFVAGVGAGITEAVLVVNPMEVVKIRLQAQHLTPSEPNAGPKYNNAIHAAYTIVKEEGVSALYRGVSLTAARQATNQGANFTVYSKLKEFLQNYHQMDVLPSWETSCIGLISGAIGPFSNAPLDTIKTRLQKDKSISLEKQSGMKKIITIGAQLLKEEGFRALYKGITPRVMRVAPGQAVTFTVYEYVREHLENLGIFKKNDTPKPKPLK
binding: binds
